{"source": "patent US20250244419A1", "about": "“INFUSION DEVICE FOR THE PREPARATION AND DELIVERY OF MRI PROBES” (The United States of America, as represented by the …, priority 2022, published 2025)", "type_in_all_cases": "physicochemical", "key": {"[1]": {"assay": "SABRE-SHEATH 13C hyperpolarization of [1-13C]pyruvate, DMSO co-ligand in methanol-d4, 1.8 T benchtop NMR detection"}, "[2]": {"assay": "SABRE-SHEATH 13C hyperpolarization of [1-13C]pyruvate in nonafluorobutyl methyl ether / deuterated methanol mixture", "conditions": "7.4 mM catalyst of Example 4, 46 mM DMSO, 0.2 mL NFBME and 0.2 mL MeOD, 0° C., 110 PSI"}, "[3]": {"assay": "Biphasic extraction of hyperpolarized pyruvate into D2O from fluorous mixture, HP 13C signal", "conditions": "aqueous phase after adding 400 μL D2O to NFBME/MeOD sample (emulsion formed), 1.8 T"}, "[4]": {"assay": "Re-use of fluorous mixture containing the perfluorinated SABRE catalyst for pyruvate hyperpolarization", "conditions": "re-used fluorous catalyst mixture from 4 days earlier, 23 mM pyruvate, 47 mM DMSO in 0.2 mL CD3OD added"}, "[5]": {"conditions": "catalyst of Example 16 6.6 mM, 40 mM sodium [1-13C]pyruvate, 50 mM DMSO, CD3OD, about 0.4 μT, 5° C., 110 psi, 90 scc/m"}, "[6]": {"conditions": "catalyst shown in Scheme 4 7.6 mM, 20 mM sodium [1-13C]pyruvate, 50 mM DMSO, CD3OD, about 0.4 μT, 5° C., 110 psi, 90 scc/m"}}}
{"smiles": "C[13C](=O)C(=O)O", "note": "[[1-^13C]pyruvate, Sodium [1-^13C]-pyruvate]", "values": [{"measurement": "optimum temperature for polarization transfer", "setting": "[1]; 30 mM sodium [1-13C]pyruvate, 2.6 mM fluorinated SABRE catalyst, 40 mM DMSO, p-H2 70 scc/m, 100 PSI", "result": "−7.24", "unit": "°C"}, {"measurement": "signal enhancement ε", "setting": "[1]; catalyst of Example 4 2.6 mM, 20 mM sodium [1-13C]pyruvate, 40 mM DMSO, 0.4 μT, 0° C., 110 PSI, 90 scc/m p-H2", "result": "~86500", "unit": "fold"}, {"measurement": "polarization P(13C)", "setting": "[1]; [5]", "result": "~2.17", "unit": "%"}, {"measurement": "signal enhancement ε", "setting": "[1]; [5]", "result": "~16900"}, {"measurement": "polarization P(13C)", "setting": "[1]; [6]", "result": "~4.91", "unit": "%"}, {"measurement": "signal enhancement ε", "setting": "[1]; [6]", "result": "~19000"}, {"measurement": "optimum mixing field", "setting": "[1]; methanol-d4, 0° C., 30 mM sodium [1-13C]pyruvate, 2.6 mM fluorinated SABRE catalyst, 40 mM DMSO, p-H2 70 scc/m, 100 PSI", "result": 0.4, "unit": "μT"}, {"measurement": "signal enhancement", "setting": "[2]; 23 mM pyruvate, 0.4 μT, 90 ssc/m", "result": "~38600", "unit": "fold"}, {"measurement": "optimum mixing field", "setting": "[2]; 22 mM pyruvate, 50 ssc/m", "result": 0.4, "unit": "μT"}, {"measurement": "signal enhancement", "setting": "[3]", "result": "~10800", "unit": "fold"}, {"measurement": "signal enhancement ε", "setting": "[4]", "result": "~3090", "unit": "fold"}]}
